# Where two headings read alike, the source gives them in different places.
# B1: OP-1: osteogenic protein-1 (OP-1, also known as BMP-7), morphogen of the OP/BMP family; OP-1 used interchangeably with sBMP-7 (protein)
# chain: STGSKQRSQNRSKTPKNQEALRMANVAENSSSDQRQACKKHELYVSFRDLGWQDWIIAPEGYAAYYCEGECAFPLNSYMNATNHAIVQTLVHFINPETVPKPCCAPTQLNAISVLYFDDSSNVILKKYRNMVVRACGCH
# Test system: streptozotocin diabetic Sprague-Dawley rats
# Format: in vivo
# Details: weeks 16-32, insulin-maintained
# Method: A long-term streptozotocin model of diabetic nephropathy was used to test and compare the therapeutic actions of BMP-7 with those of Enalapril. The study design was a treatment protocol beginning at 16 weeks when glomerular hypertrophy and proteinuria were established. The effects of therapy with BMP-7 (10, 30, or 100 μg/kg iv, biw) were compared to a maximal dose of Enalapril (20 mg/kg) and to a vehicle control. […] The GFR of 32 week diabetic Enalapril treated rats was 0.58±0.06 (not significant compared to vehicle treated and sham injected rats 0.55±0.02).
# Animals: Female Sprague-Dawley rats 10 weeks of age weighing 190-220 g were used. Animals were allowed free access to standard rat chow and to tap water. Diabetes mellitus was induced by a single tail-vein injection of Streptozotocin (STZ 62 mg/kg of body weight, Sigma chemical company, St. Louis, Mo.) dissolved in normal saline at day 0. The diabetic state was confirmed 72 hours later by the determination of blood glucose concentration>300 mg/dl. […] Tail blood glucose levels were measured twice a week with an Accu—Chek™ Advantage meter (Roche Diagnostic Corporation, Indianapolis, Ind.). […] Food and water intake were monitored daily.
# Renal hypertrophy was well developed at 16 weeks prior to treatment with vehicle, BMP-7, or enalapril. […] Glomerular filtration rate (GFR), urine albumin excretion, kidney weight, glomerular area, mesangial matrix area, interstitial volume, monocyte and macrophage infiltration, thickness of glomerular basement membrane (GBM) and glomerulosclerosis were measured.
# Renal Function: In all animals, glomerular filtration rate (GFR) was measured as the clearance of inulin. […]
# After the completion of surgery, a bolus of 2 ml/kg of 3% inulin (Cypros Pharmaceutical Corp, W. Carlsbad, Calif.) and 0.2% p-aminohippurate (PAH) in normal saline was infused as a priming load, followed by a sustaining infusion of the same solution at the rate of 8 ml/h·kg. […] Plasma and urine were analyzed for inulin.
# Urine volume was measured and urinary protein concentration was determined with a Bio-Rad protein assay. […]
molecule,measurement,setting,value
B1,Blood sugar,BMP-7 10 μg/kg iv twice a week,460.0 ± 5.5 mg/dL
same,Blood sugar,BMP-7 30 μg/kg iv twice a week,455.8 ± 5.7 mg/dL
same,Blood sugar,BMP-7 100 μg/kg iv twice a week,461.6 ± 5.5 mg/dL

# Reference: patent publication US20050272649A1, “Conjoint administration of morphogens and ACE inhibitors in treatment of chronic renal failure” (priority 2002, published 2005)
